According to paper PMC5741719:
No constants are given. Whether binding was seen depends on the method and setting. Binding seen in cells or lysates may run through a third protein. Binding calls can cover weak binding; strength is not graded here.

The chains behind the UniProt entries cited, without tags or fusion partners. Where a name states a change or a piece, a line headed by the entry shows the natural chain unless it says otherwise. Residues count along the entry.
UniProt P62812, residues 28-455: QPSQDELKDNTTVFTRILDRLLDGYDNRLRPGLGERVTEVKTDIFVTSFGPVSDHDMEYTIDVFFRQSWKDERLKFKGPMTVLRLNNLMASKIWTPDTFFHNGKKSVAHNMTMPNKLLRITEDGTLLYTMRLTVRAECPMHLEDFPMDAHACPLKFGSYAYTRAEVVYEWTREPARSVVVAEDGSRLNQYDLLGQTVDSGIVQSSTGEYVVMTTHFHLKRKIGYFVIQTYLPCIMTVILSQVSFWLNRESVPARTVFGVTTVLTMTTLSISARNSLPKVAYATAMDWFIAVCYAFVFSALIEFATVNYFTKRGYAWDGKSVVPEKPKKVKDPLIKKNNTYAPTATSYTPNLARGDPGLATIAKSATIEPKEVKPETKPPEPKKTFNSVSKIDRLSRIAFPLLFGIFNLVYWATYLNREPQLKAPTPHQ
UniProt P16043: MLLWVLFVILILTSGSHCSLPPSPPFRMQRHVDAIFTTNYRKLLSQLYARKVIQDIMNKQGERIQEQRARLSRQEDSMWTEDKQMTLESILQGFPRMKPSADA

Target: GABAA receptor alpha 1 subunit (mouse (endogenous in hippocampal tissue)) (UniProt P62812)
Experiment: co-IP; protein extracts of mouse hippocampal tissue in IP lysis buffer; incubated overnight at 4 °C with anti-GHRH, anti-GABAAα1 or anti-GABAAβ2 + 3 antibody (rabbit IgG as isotype control); Protein A/G agarose beads 2 h at 4 °C, five washes; Western blot

Growth hormone releasing hormone (from UniProt P16043)
binding: binds
